# Data published in PubChem BioAssay AID1671190 (National Center for Advancing Translational Sciences (NCATS), 2021).
# By UniProt entry, the sequences of proteins in these tests, tags left out. Where a name states a change or a piece, a line headed by the entry shows the natural chain unless it says otherwise.
# UniProt P18054: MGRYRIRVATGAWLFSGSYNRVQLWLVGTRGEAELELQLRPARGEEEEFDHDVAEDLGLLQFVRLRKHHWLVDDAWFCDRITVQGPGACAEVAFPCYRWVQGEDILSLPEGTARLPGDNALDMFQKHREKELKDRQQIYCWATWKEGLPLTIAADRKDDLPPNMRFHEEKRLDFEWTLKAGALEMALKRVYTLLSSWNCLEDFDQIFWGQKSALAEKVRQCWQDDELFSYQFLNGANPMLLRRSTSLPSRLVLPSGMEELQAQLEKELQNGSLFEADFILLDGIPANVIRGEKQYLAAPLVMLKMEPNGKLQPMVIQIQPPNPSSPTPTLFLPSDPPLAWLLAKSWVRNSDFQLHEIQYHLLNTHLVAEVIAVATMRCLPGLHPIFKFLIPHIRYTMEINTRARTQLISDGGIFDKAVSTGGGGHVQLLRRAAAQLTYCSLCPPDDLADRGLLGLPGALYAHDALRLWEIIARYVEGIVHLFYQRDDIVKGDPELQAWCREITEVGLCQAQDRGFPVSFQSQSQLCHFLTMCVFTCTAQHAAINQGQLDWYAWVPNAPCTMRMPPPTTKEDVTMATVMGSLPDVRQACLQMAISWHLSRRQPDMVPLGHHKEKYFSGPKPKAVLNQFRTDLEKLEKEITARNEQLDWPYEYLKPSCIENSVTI
# Out of some 580,000 compounds screened, about 6,100 (1.1%) were called active. Inconclusive results, whose numbers are uncertain, are shown with a selection of clear calls. The call rests on the fitted dose curve; in most records, active means well fitted inhibition curve with a large enough effect; inconclusive means small, poorly fitted or top-dose-only effect, or another doubt; inactive means no such curve, though single readings can be large or run the other way. Potencies of inconclusive entries are doubtful fits and often do not repeat.
# Target: Polyunsaturated fatty acid lipoxygenase ALOX12 (Homo sapiens) (UniProt P18054)
# Experiment: Primary qHTS assay for inhibitors of human arachidonate 12S-lipoxygenase (ALOX12): Round 2
# Settings: purified 12hLO, xylenol orange hydroperoxide absorbance; activity change, negative = inhibition: at 108 µM (top of the series) unless noted
# How it was run: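 Purified human 12hLO (150 nM final) in 25 mM Hepes, 0.01% Triton X-100, pH 7.0 was preincubated 15 min at room temperature with compound. Then 40 uM arachidonic acid was added, 30 min. Hydroperoxide was read by Fe-XO absorbance ratio 573/405 nm.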
# On the % scale 0 is the no-effect control and ±100 the full control effect; potency means the concentration at half of the fitted maximal effect.
SMILES,Potency,"activity change, negative = inhibition"
CC1(c2nnc(-c3ccc(Cl)cc3)o2)CC(c2ccc(Cl)cc2)=NO1 (stereo unspecified),"inconclusive: 89.1 µM [inhibitor, partial curve, poor fit]",
Cc1ccc(F)cc1NS(=O)(=O)c1ccc(N2CC(C(=O)O)CC2=O)cc1 (stereo unspecified),"inconclusive: 50.1 µM [inhibitor, partial curve, poor fit]",
Cc1ccc(S(=O)(=O)Nc2ccccc2C(=O)N2CCCC2)cc1,"inconclusive: 89.1 µM [inhibitor, single point]",
Cc1cc(NC(=O)c2cc(-c3cccc(Cl)c3)on2)nn1Cc1ccc(Cl)cc1,"inconclusive: 89.1 µM [inhibitor, partial curve, poor fit]",
O=C(O)C1Nc2c(O)cc(Cl)c([N+](=O)[O-])c2C2C=CCC12 (stereo unspecified),"inconclusive: 2.24 µM [inhibitor, full curve, poor fit]",
O=C(CCc1c[nH]c2ccccc12)N(CC(F)(F)F)C1CC1,"inconclusive: 112 µM [inhibitor, single point]",
COc1ccc(CN(C)C(=O)Cn2nc(C(=O)O)c3ccccc3c2=O)cc1,"inconclusive: 39.8 µM [inhibitor, partial curve, poor fit]",
COc1cccc(N2C(=O)NC(=NC3CCCCC3)C23CCCN(C(=O)c2ccccc2)C3)c1 (stereo unspecified),"inconclusive: 100 µM [inhibitor, single point]",
CC1CCC(NC(=O)CCc2cn(Cc3ccccc3Cl)c3ccccc23)CC1 (stereo unspecified),inactive,
CN(C)C(=O)N1CCC(C(=O)NCc2ccc3c(c2)OCO3)CC1,,inactive: 17.3%
CC(=O)N/C(=C\c1ccccc1)C(=O)OCc1cccc(S(=O)(=O)N(C)C)c1,,inactive: -13.6%
CC(=O)Nc1ccc(N2C(=O)C(=O)/C(=C(/O)c3ccccc3)C2c2ccccc2)cc1 (stereo unspecified),"inconclusive: 56.2 µM [inhibitor, partial curve, poor fit]",
COc1cccc(CNC(=O)COC(=O)CCCNC(=O)c2ccc(Cl)cc2)c1,"inconclusive: 141 µM [inhibitor, partial curve, poor fit]",
COc1cc(CNc2ccc(N3CCN(C(C)=O)CC3)cc2)ccc1OCc1ccc(F)cc1,"inconclusive: 35.5 µM [inhibitor, partial curve]",
O=C(COc1ccc(Cl)cc1Cl)NC(=O)N1CCOCC1,"inconclusive: 79.4 µM [inhibitor, partial curve, poor fit]",
COCCCNCCOCCOc1ccc(C)cc1Br,"inconclusive: 0.398 µM [inhibitor, full curve, poor fit]",
CC1(C)CC(=O)C=C(NCCc2c[nH]c3ccccc23)C1,"inconclusive: 100 µM [inhibitor, single point]",
O=Cc1cc(Cl)c(OCc2ccc(C(=O)O)cc2)c(Cl)c1,,inactive: -20.1%
Cc1ccc(/C(=N/O)c2cccs2)cc1,"inconclusive: 89.1 µM [inhibitor, single point]",
O=C(Nc1cccc(S(=O)(=O)Nc2ccc(Cl)cc2)c1)c1cc2c(s1)CCCC2,"inconclusive: 44.7 µM [inhibitor, full curve, poor fit]",
Cc1cc(C)cc(C(=O)NCC(=O)O)c1,"inconclusive: 126 µM [inhibitor, single point]",

SMILES,Potency,"activity change, negative = inhibition"
Cc1ccc(-c2[nH]ncc2CNCc2cccnc2)cc1,"inconclusive: 1.12 µM [inhibitor, full curve, poor fit]",
CCOc1ccc(S(=O)(=O)N(CC)CC(=O)NCC2CCCO2)cc1 (stereo unspecified),,inactive: 5.87%
COc1ccc(NC(=O)CSC2=Nc3ccccc3C3=NC(CCC(=O)NCc4cccs4)C(=O)N23)cc1 (stereo unspecified),"inconclusive: 112 µM [inhibitor, partial curve, poor fit]",
Cc1cc(Cl)ccc1S(=O)(=O)NCCCC(=O)O,"inconclusive: 20 µM [inhibitor, partial curve, poor fit]",
CN1CCN(c2ncc3nc(-c4ccc(F)cc4)c(=O)n(C4CC4)c3n2)CC1,"inconclusive: 50.1 µM [inhibitor, partial curve, poor fit]",
CN1CCN(C2=Cc3cc(Cl)ccc3Sc3cc(F)ccc32)CC1,"inconclusive: 28.2 µM [inhibitor, partial curve, poor fit]",
CC(C)(C)c1ccc(-c2nnc(SCC(=O)N3CCOC3=O)n2C2CCCC2)cc1,,inactive: -27.8%
CCOC(=O)C(=O)CC(=O)c1cc(Cl)ccc1Cl,"inconclusive: 0.794 µM [inhibitor, full curve, poor fit]",
OC(c1ccc(Cl)c(Cl)c1)c1ncc(-c2ccc(C(F)(F)F)cc2)[nH]1 (stereo unspecified),,inactive: -32.6%
Cc1cc(C)c2[nH]c(=O)c(CN(Cc3ccccc3)C(=S)NCCCN(C)C)cc2c1,"inconclusive: 50.1 µM [inhibitor, partial curve, poor fit]",
Fc1ccccc1CN1CCc2ccccc2C1,"inconclusive: 0.398 µM [inhibitor, full curve, poor fit]",
C/C=C(\C)CN1CCN(c2ccccc2F)CC1,"inconclusive: 0.224 µM [inhibitor, full curve, poor fit]",
Cc1ccc(Cc2c(-c3ccc(C)cc3)nc3c(C)cc(Br)cn23)cc1,"inconclusive: 39.8 µM [inhibitor, partial curve, poor fit]",
O=C(C1CCCCC1)N1CCC2(COc3ncccc3S(=O)(=O)N2)C1 (stereo unspecified),"inconclusive: 112 µM [inhibitor, partial curve, poor fit]",
CCOc1ccc(NCc2cccn2-c2nnc(N3CCC(C(=O)NCCCN4CCCCC4C)CC3)s2)cc1 (stereo unspecified),,inactive: -2.48%
CCc1nc2c(OCc3ccccc3C)cccn2c1N(C)C(=O)c1ccco1,,inactive: -19.8%
CCC(=O)Nc1ccc2nc(SCCOc3ccccc3)sc2c1,,inactive: -13.9%
Cc1ccc2c(c1)[C@H]1OCCC[C@H]1C(c1ccc(O)c(Br)c1)N2 (stereo partly specified),"inconclusive: 89.1 µM [inhibitor, single point]",
Cn1cc(Cc2ccc(C(=O)NC34CC5CC(CC(C5)C3)C4)cn2)c2ccccc21,"inconclusive: 70.8 µM [inhibitor, partial curve, poor fit]",
CC(=O)Nc1ccc(CNC2CCC(C(F)(F)F)CC2)cc1 (stereo unspecified),"inconclusive: 112 µM [inhibitor, single point]",

# An excerpt of these results, bar-delimited:
SMILES | Potency | activity change, negative = inhibition
Fc1ccccc1CN1CCc2ccccc2C1 | inconclusive: 0.398 µM [inhibitor, full curve, poor fit] | 
C/C=C(\C)CN1CCN(c2ccccc2F)CC1 | inconclusive: 0.224 µM [inhibitor, full curve, poor fit] | 
Cc1ccc(Cc2c(-c3ccc(C)cc3)nc3c(C)cc(Br)cn23)cc1 | inconclusive: 39.8 µM [inhibitor, partial curve, poor fit] | 
O=C(C1CCCCC1)N1CCC2(COc3ncccc3S(=O)(=O)N2)C1 (stereo unspecified) | inconclusive: 112 µM [inhibitor, partial curve, poor fit] | 
CCOc1ccc(NCc2cccn2-c2nnc(N3CCC(C(=O)NCCCN4CCCCC4C)CC3)s2)cc1 (stereo unspecified) |  | inactive: -2.48%
CCc1nc2c(OCc3ccccc3C)cccn2c1N(C)C(=O)c1ccco1 |  | inactive: -19.8%
CCC(=O)Nc1ccc2nc(SCCOc3ccccc3)sc2c1 |  | inactive: -13.9%
Cc1ccc2c(c1)[C@H]1OCCC[C@H]1C(c1ccc(O)c(Br)c1)N2 (stereo partly specified) | inconclusive: 89.1 µM [inhibitor, single point] | 
